PubChem BioAssay AID504808, Drosophila RNAi Screening Center, 2011
The deposit covers about 21,000 reagents; this is a random part of those with a known target gene and a result. Of all reagents, 18 (0.084%) are marked active. 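Raw counts without plate normalisation, one of two replicates; the ratio scores behind the calls were not deposited.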 Unmarked entries are inactive. The numbers tell different reagents against one gene apart. Names joined by + are all predicted targets of the reagent. No sequences are given here. Not given: the amount of reagent, the time to read-out.

Screen: 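Genes whose loss lifts activity of an E2F-responsive reporter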 (primary screen)
System: Drosophila S2 cells
Knock-down reagent: long dsRNA against Drosophila genes
Read-out: 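Firefly luciferase driven by E2F sites, normalised to Renilla luciferase on the same minimal promoter, measured by plate reader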
Scale: E2F firefly: higher = more E2F reporter activity; Renilla normaliser: higher = more normaliser reporter signal
Hit rule: 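a knock-down counted as active when the firefly/Renilla E2F signal rose above 50%, a threshold chosen arbitrarily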

The opening 5 entries, to show the layout:
no.	target	dsRNA no.	E2F firefly, rep 1	Renilla normaliser, rep 1
1	CG1847	1	8315	736
2	CG4269	1	1.05e5	4056
3	CG13360	1	1867	776
4	Ssu72	1	1.39e5	6220
5	Fibp	1	68658	3968

Main list, repeating the preview:
no.	target	dsRNA no.	E2F firefly, rep 1	Renilla normaliser, rep 1
1	CG1847	1	8315	736
2	CG4269	1	1.05e5	4056
3	CG13360	1	1867	776
4	Ssu72	1	1.39e5	6220
5	Fibp	1	68658	3968
6	CG17732	1	1.38e5	6800
7	CG11125	1	1.27e5	4704
8	CG4259	1	1.83e5	6262
9	Dll	1	92509	3675
10	Bub1	1	1.00e5	4036
11	Prosap	1	1.03e5	4381
12	Prosap	2	2844	94
13	Tspo	1	89649	3805
14	CG4017	1	1.46e5	5068
15	EbpII	1	82313	3732
16	sotv + CG10731	1	1.41e5	4672
17	sotv + CG10731	2	1.59e5	5467
18	brwl	1	1.30e5	5361
19	brwl	2	64216	3161
20	CG18609	1	1.38e5	4584
21	dnd	1	1.53e5	7598
22	CG12861	1	1.03e5	5923
23	agt	1	1.43e5	6983
24	rt	1	1.13e5	6213
25	Wdr59	1	89756	4362
26	Idh3g	1	1.16e5	5840
27	pb	1	70679	3637
28	pb	2	1.35e5	5797
29	CG34452	1	1.35e5	4260
30	CG15741	1	1.41e5	6548
31	CG13675	1	1.11e5	4216
32	CG13675	2	76354	3363
33	CG13654	1	1.04e5	5851
34	CG4611	1	95912	4333
35	CG32814	1	92844	2547
36	CG8677 + CG31626	1	92205	3517
37	CG13168	1	89543	3791
38	CG8960	1	70317	3422
39	Gpa2	1	1.43e5	6587
40	TTLL3B	1	1.49e5	4870
41	Ssadh	1	1932	1072
42	Daxx	1	88204	3430
43	Cyp6a19	1	138	20
44	p24-1	1	79204	4864
45	Sec20	1	1.48e5	6450
46	mrt	1	1.26e5	6953
47	INPP5E	1	1.26e5	7311
48	CG12128	1	3150	75
49	Jon65Aiii	1	81729	3564
50	Fmr1	1	1.55e5	6579
51	LeuRS	1	1.64e5	5354
52	CG9389	1	82003	3533
53	CG9522	1	2.44e5	8086
54	CG1999	1	7813	712
55	Obsc	1	48379	3389
56	Obsc	2	79996	3672
57	Obsc	3	98951	4466
58	Obsc	4	1.05e5	4601
59	Fpgs1	1	1.32e5	6367
60	CG7332	1	1.68e5	5459
61	CG5805	1	70049	3432
62	colt	1	78198	3270
63	CG15550	1	1.21e5	6651
64	SMSr	1	60964	3170
65	SMSr	2	96186	3892
66	CG14949	1	1.01e5	3960
67	CG1907	1	1817	924
68	CG11227	1	1.38e5	7033
69	Rpt5	1	53353	3510
70	Ldsdh1	1	90560	4828
71	CG7556	1	1.36e5	5091
72	alpha-Cat	1	71013	3601
73	CG17364	1	1.17e5	5034
74	CG17364	2	1.08e5	5250
75	CG10301	1	1.09e5	5589
76	CG1909	1	1931	1156
77	CG4194	1	1745	924
78	Sting	1	1.35e5	4892
79	Faf2	1	77901	3278
80	mRpS14	1	1.33e5	5146
81	rdx	1	60181	4164
82	rdx	2	1.13e5	5405
83	CG15916	1	1.57e5	6503
84	CG13028	1	1.70e5	8836
